According to patent US20260242413A1, “ENDOTOXIN NE[…]” (AMFERIA AB, priority 2023, published 2026):

System: E. coli (CCUG 29300)
Test: Endotoxin binding of AMP functionalised crosslinked hydrogel particle dispersion, chromogenic LAL endotoxin assay
Type: cell-based
Settings: 2 μg/ml Ciprofloxacin preparation
Protocol: A colony of E. coli (CCUG 29300) was inoculated in Tryptic Soy Broth, TSB. It was cultivated until mid-log (~10^9 CFU/ml). The substances to be tested were prepared and diluted to the correct concentrations. As they were subsequently a 2× concentration of interest was prepared. The aim was for 50×MIC for quite fast activity. For this study 2 ml of each (for 2×50×MIC) of the following were prepared:
The prepared substances were added to Eppendorf tubes, and 500 μl of PBS was added to each. A solution of 10% TSB, 90% PBS was prepared. 500 μl of the bacterial solution was added to the tubes, except the −bac tube, to prepare a 10^6 CFU/ml concentration. 500 μl of PBS was added to the −bac tube.
The tubes were vortexed and incubated at 37° C. Each of the samples was removed at desired time intervals (1 hour, 3 hours, and 24 hours).
The absorbance was read on a plate reader at 545 nm using distilled water as a reference. The endotoxin concentrations were measured using a standard curve from the endotoxin standards.

O=C(O)c1cn(C2CC2)c2cc(N3CCNCC3)c(F)cc2c1=O [Ciprofloxacin]
endotoxin release compared with free AMP or AMP attached to hydrogel: significantly more endotoxin release
